Laboratory results: patent publication US20220040301A1
These are yes or no findings as the source states them, for the method shown. Some binding calls cover weakened binding; strength is not graded here.

The chains behind the UniProt entries cited, without tags or fusion partners. Residues count along the entry.
UniProt P05231, residues 30-212: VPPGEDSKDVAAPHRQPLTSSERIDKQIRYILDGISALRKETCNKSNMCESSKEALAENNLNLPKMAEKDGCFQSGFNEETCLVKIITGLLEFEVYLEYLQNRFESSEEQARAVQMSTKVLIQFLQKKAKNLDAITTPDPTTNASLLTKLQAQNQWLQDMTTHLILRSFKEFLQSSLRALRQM

Tests used:
interleukin 6 (IL-6) [1] = target: interleukin 6 (IL-6) (UniProt P05231); test: IL-6 binding ELISA after 9-12 months at 2-8°C
interleukin 6 (IL-6) [2] = target: interleukin 6 (IL-6) (UniProt P05231); test: IL-6 binding ELISA and cell based bioassay; 10 and 50 mg/mL
interleukin 6 (IL-6) [3] = target: interleukin 6 (IL-6) (UniProt P05231); test: IL-6 binding ELISA and HEK Blue Bioassay; long term storage at 5 ± 3°C
interleukin 6 (IL-6) [4] = target: interleukin 6 (IL-6) (UniProt P05231); test: IL-6 binding ELISA and HEK Blue cell-based bioassay; accelerated and stress storage

- binding (interleukin 6 (IL-6) [1]): binds
- binding (interleukin 6 (IL-6) [2]): binds
- binding (interleukin 6 (IL-6) [3]): binds
- binding (interleukin 6 (IL-6) [4]): binds
B1: COR-001 antibody (antibody, human IgG1, kappa, V domains shown)
VH: EVQLVESGGGLVQPGGSLRLSCAASGFTISSNYMIWVRQAPGKGLEWVSDLYYYAGDTYYADSVKGRFTMSRDISKNTVYLQMNSLRAEDTAVYYCARWADDHPPWIDLWGRGTLVTVSS
VL: DIQMTQSPSTLSASVGDRVTITCRASQGISSWLAWYQQKPGKAPKVLIYKASTLESGVPSRFSGSGSGTEFTLTISSLQPDDFATYYCQQSWLGGSFGQGTKLEIKR
